Values quoted from earlier work, collected in patent US8518459B2, “Composition for regulating lipid metabolism” (Actigenomics S.A., priority 2009, dated 2013).
Some entries share one result that the patent states for a list of compounds.

Conditions: intestinal tract; cited from earlier work

CC(C)[C@H](C)CC[C@@H](C)[C@H]1CC[C@H]2[C@@H]3CC=C4C[C@@H](O)CC[C@]4(C)[C@H]3CC[C@]12C [campesterol]
Intestinal absorption: 10-15%
